Results published in patent US8552176B2 (priority 2010, dated 2013).
Some results were stated once for a whole list of compounds, not compound by compound. For at least one compound, name, drawing or mass did not settle the structure.

System: ten-member panel of human carcinomas
Assay type: cell-based

| Structure (SMILES) | GI50 [µM] |
| --- | --- |
| CC(=O)OC1COC(N(CCCCc2ccc(N(CCCl)CCCl)cc2)OC(C)=O)C(OC(C)=O)C1OC(C)=O (mixture of isomers) [Compound 69, N-Acetoxy-4-(4-N′,N′-bis(2-chloroethyl)amino)phenylbutylamino-D-riboside peracetate] | 0.53 to 1.3 |
| O[C@@H]1[C@H](O)COC(N(O)CCCCc2ccc(N(CCCl)CCCl)cc2)[C@@H]1O (stereo partly drawn) [Compound 68, N-Hydroxy-4-(4-N′,N′-bis(2-chloroethyl)amino)phenylbutylamino-D-riboside] | 0.53 to 1.3 |
